Here are results for 1 compound from US20150269307A1, “TARGET INHIBITION MAP SYSTEM FOR COMBINATION THERAPY DESIGN AND METHODS OF USING SAME” (Texas Tech University System, priority 2014, published 2015).

One may read the IC50 as the concentration at which inhibition is half-maximal.

The assay deals with human patient-derived xenografts. The experiment in a line: Xenograft-derived chemical screen (Supplemental Table 3). Type of assay: cell-based. The conditions noted are these: 60 agent PPTI screen. The procedure:
Three chemical screens were applied to the U23674 primary tumor cell culture. […] The target inhibition profile is a quantified description of the inhibitory properties of the compound on the numerous protein targets preset on the PPTI screen.
To screen the chemical agents, cell cultures were plated in 384 well plates at a seeding density of 2000 cells per well over graded concentrations of the numerous compounds. The chemical concentrations were between 10 nM and […] depending on the activity range of the compounds. The cells were incubated in DMEM supplemented with 1% penicillin streptomycin, and 10% fetal bovine serum for 72 hours. Chemical sensitivity was determined by an MTS cell viability assay after the 72 hour incubation period. The sensitivity responses at the different concentrations were used to determine the chemical IC50 using a hill curve fitting algorithm with variable hill slope coefficients.

Take `O=C(CCCCCCC(=O)Nc1ccccc1)NO` [vorinostat]: the IC50 turned out to be 1970 nM.
